Laboratory results reported in the supplement of paper PMC8256030.
The other results are listed elsewhere or left out. Single values are uncertain here, since repeats match poorly.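 HEK293T cells were given each compound shortly before transfection with a reporter in which red mCherry is followed by the SARS-CoV-2 frameshift element and then GFP in the −1 frame, so GFP appears only after frameshifting.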

Each compound was assayed on HEK293T (assay: percent viability (nuclei count) relative to control; higher = more viable cells). Details: 10 µM; 24 h.

Structure (SMILES)	percent viability [%]
OC(CCN1CCCCC1)(c1ccccc1)C1CC2C=CC1C2 (centres undefined) [biperiden]	403
CCOC(=O)N1c2ccc(C(F)(F)F)cc2[C@@H](N(Cc2cc(C(F)(F)F)cc(C(F)(F)F)c2)C(=O)OC)C[C@H]1CC [torcetrapib]	152
O=C1[C@H]2CCCC[C@H]2C(=O)N1CCCCN1CCN(c2nsc3ccccc23)CC1 [perospirone]	130
Nc1ccn([C@H]2CO[C@@H](CO)S2)c(=O)n1 [apricitabine]	126
Clc1ccc(Cn2c(CN3CCCC3)nc3ccccc32)cc1	306
NCC[C@H](O)C(=O)N[C@@H]1C[C@H](N)[C@@H](O[C@H]2O[C@H](CN)CC[C@H]2N)[C@H](O)[C@H]1O[C@H]1O[C@H](CO)[C@@H](O)[C@H](N)[C@H]1O [arbekacin]	274
Cc1ccc([C@@H]2O[C@H](CO)[C@@H](O)[C@H](O)[C@H]2O)cc1Cc1ccc(-c2ccc(F)cc2)s1 [Canagliflozin]	175
CCCCCCCCCCCCCCCC(=O)OC[C@H](O)[C@H]1OC(=O)C(O)=C1O	282
CCOC(=O)COc1ccc2c(=O)cc(-c3ccccc3)oc2c1 [efloxate]	229

Reprinted from the listing, 2 compounds:
Structure (SMILES)	percent viability [%]
OC(CCN1CCCCC1)(c1ccccc1)C1CC2C=CC1C2 (centres undefined) [biperiden]	403
CCOC(=O)N1c2ccc(C(F)(F)F)cc2[C@@H](N(Cc2cc(C(F)(F)F)cc(C(F)(F)F)c2)C(=O)OC)C[C@H]1CC [torcetrapib]	152
